Results as given in PubChem BioAssay AID504327 (National Center for Advancing Translational Sciences (NCATS), 2011).
“And” between values parts separate entries of the source, which are not always exact repeats. Identical values can stand only once. Screen size: about 390,000 compounds; about 820 (0.21%) were called active. This list was built around the results that the source calls inconclusive (neither active nor inactive); the mix of calls is not that of the screen. Calls follow the shape of the dose curve; as a rule, active = well fitted inhibition curve with a large enough effect; inconclusive = small, poorly fitted or top-dose-only effect, or another doubt; inactive = no such curve, though single readings can be large or run the other way. A potency beside an inconclusive call is a rough fit, not a confirmed value.
% is scaled to controls: 0 for no effect and ±100 for the full control effect; potency is read from the fitted curve at half-maximal effect.

Protein sequences, listed by entry. Tags and fused reporters are not part of them.
UniProt Q92830, whole entry, looked up: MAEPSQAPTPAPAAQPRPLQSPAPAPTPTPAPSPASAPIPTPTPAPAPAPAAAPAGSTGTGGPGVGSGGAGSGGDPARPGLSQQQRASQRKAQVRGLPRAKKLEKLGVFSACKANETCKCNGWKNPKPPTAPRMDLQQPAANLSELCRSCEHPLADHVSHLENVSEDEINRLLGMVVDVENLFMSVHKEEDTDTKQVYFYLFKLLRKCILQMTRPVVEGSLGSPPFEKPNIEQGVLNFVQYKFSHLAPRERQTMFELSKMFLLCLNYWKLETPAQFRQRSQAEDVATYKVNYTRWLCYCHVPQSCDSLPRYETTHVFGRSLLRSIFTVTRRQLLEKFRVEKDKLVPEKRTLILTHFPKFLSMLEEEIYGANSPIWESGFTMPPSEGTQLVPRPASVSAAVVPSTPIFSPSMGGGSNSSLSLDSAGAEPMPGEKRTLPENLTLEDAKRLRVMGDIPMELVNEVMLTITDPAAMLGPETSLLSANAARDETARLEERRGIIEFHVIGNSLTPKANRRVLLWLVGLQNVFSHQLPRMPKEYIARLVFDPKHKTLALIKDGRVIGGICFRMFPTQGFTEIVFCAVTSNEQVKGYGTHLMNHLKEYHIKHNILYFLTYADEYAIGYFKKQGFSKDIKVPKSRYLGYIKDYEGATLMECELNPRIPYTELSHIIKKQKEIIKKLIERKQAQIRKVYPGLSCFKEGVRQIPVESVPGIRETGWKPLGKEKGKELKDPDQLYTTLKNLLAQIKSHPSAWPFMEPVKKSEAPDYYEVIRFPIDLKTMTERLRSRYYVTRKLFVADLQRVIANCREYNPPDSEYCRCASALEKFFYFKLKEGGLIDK

What follows are compounds tested against Histone acetyltransferase KAT2A (Homo sapiens) (UniProt Q92830) (assay: qHTS Assay for Inhibitors of GCN5L2). Conditions: GCN5L2 HAT assay, ThioGlo1 CoA-SH fluorescence; activity change, negative = inhibition: at 58.9 µM (top of the series) unless noted.
Outline: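 GCN5L2 (20 nM) in 50mM HEPES pH 7.5, 0.1mM EDTA, 0.01% Tween-20 preincubated 15 min with compounds at room temperature. Reaction started with H3(1-25) 75uM, acetyl-CoA 70uM, ThioGlo1 50uM; CoA-thiol fluorescence (Ex340/Em540) read at 0 and 20 min.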
`O=c1c2ccccc2oc2cc(NCCCn3ccnc3)ccc12` was tested, and the Potency was inconclusive: 39.8 µM [inhibitor, single point].
For `Cc1cc(C)c(NC(=O)CSc2ncc(S(=O)(=O)c3ccc(C(C)(C)C)cc3)c(=O)[nH]2)c(C)c1`, the Potency was “inactive”.
For `CCOC(=O)c1cc(-c2csc(-c3ccc(C(C)(C)C)cc3)n2)on1`, the Potency was inconclusive: 39.8 µM [inhibitor, single point].
In the case of `CNC[C@@H]1Oc2ccc(NC(=O)Nc3c(C)noc3C)cc2CC(=O)N([C@H](C)CO)C[C@H]1C`, the Potency is reported as “inactive”.
In the case of `C=Cc1ccc(C(=O)N2CCCC(Nc3ccc4c(c3)OCCO4)C2)cc1` (centres undefined), the Potency is reported as inconclusive: 39.8 µM [inhibitor, single point].
In the case of `CN1C(=O)c2cccc3c(N)ccc(c23)C1=O`, the Potency is reported as inconclusive: 39.8 µM [inhibitor, single point].
`COC(=O)c1ccc(/C=C2\CCn3c2nc2cc(C(=O)O)ccc2c3=O)cc1` was tested, and the Potency was inconclusive: 39.8 µM [inhibitor, single point].
In the case of `CCCn1nc(NS(=O)(=O)c2ccccc2[N+](=O)[O-])c2cc3ccccc3nc21`, the Potency is reported as inconclusive: 0.631 µM [inhibitor, full curve, poor fit].
In the case of `COC(=O)c1ccc(-c2ncc(-c3cccc4ccccc34)o2)cc1`, the Potency is reported as inconclusive: 35.5 µM [inhibitor, single point].
In the case of `COc1ccc(C2Nc3ccccc3C(=O)N2Cc2ccccc2)cc1COc1ccccn1` (centres undefined), the Potency is reported as inconclusive: 39.8 µM [inhibitor, single point].
In the case of `O=C(Nc1cccc2ncccc12)c1ccco1`, the Potency is reported as “inactive”.
`COc1cc2ccnc(Cc3cccc(OC)c3OC)c2cc1OC` was tested, and the Potency was inconclusive: 6.31 µM [inhibitor, single point].
In the case of `CCOC(=O)c1c(NC(=O)CN(CC)CC)sc2c1CCC2`, the Potency is reported as “inactive”.
With `O=Nc1c(O)n(Cc2ccc(Cl)c(Cl)c2)c2ccccc12` the Potency was inconclusive: 0.794 µM [inhibitor, single point].
`CCN(CC(=O)Nc1c(F)cccc1F)C(=O)CCc1nc2sc3c(c2c(=O)[nH]1)CCCC3` was tested, and the Potency was inconclusive: 31.6 µM [inhibitor, single point].
With `Clc1ccc2c(c1)nc1n2CCCC1` the Potency was inconclusive: 8.91 µM [inhibitor, single point].
In the case of `Cc1nc2ccc(NS(=O)(=O)c3ccc(Br)cc3)cc2s1`, the Potency is reported as “inactive”.
In the case of `COc1cc(/C=C(\C#N)C(=O)Nc2nnc(C(F)(F)F)s2)ccc1OCc1ccc(C(F)(F)F)cc1C(F)(F)F`, the Potency is reported as active: 8.91 µM and active: 7.94 µM.
For `COCCCN=C(c1ccco1)n1c(=S)nc(-c2ccco2)n(CCCOC)c1=S`, the Potency was inconclusive: 22.4 µM [inhibitor, single point].
With `COC(=O)/C(=C/Nc1cccc2ccccc12)[N+](=O)[O-]` the activity change, negative = inhibition was inconclusive: -81% [inhibitor] [at 0.501 µM].
In the case of `CCN(c1ccccc1)S(=O)(=O)c1ccc(N2CCN(c3ccc(O)cc3)CC2)nc1`, the Potency is reported as inconclusive: 28.2 µM [inhibitor, single point].
In the case of `Cc1ccc(N2CC(NC(=O)C3CCCCC3)CC2=O)cc1C` (centres undefined), the Potency is reported as “inactive”.
With `COc1ccc(N2CCN(C(=O)c3cn(C)c(=O)c4c3c3ccccc3n4C)CC2)cc1` the Potency was “inactive”.
With `CCC1=C/C(=C\c2ccc3c(c2)OCO3)C(=O)S1` the Potency was inconclusive: 0.501 µM [inhibitor, single point].
For `O=C(O)c1cc(N/N=C/c2ccc(OCc3ccccc3)cc2)ccc1Cl`, the Potency was inconclusive: 35.5 µM [inhibitor, single point].
With `Cc1ccc(-n2cc(C(=O)OCc3ccc(F)c(F)c3)c3ccccc3c2=O)cc1` the Potency was “inactive”.
In the case of `O=C(CSc1nc2ccccc2c(=O)[nH]1)Nc1nc(-c2ccc(Br)cc2)cs1`, the Potency is reported as inconclusive: 2.82 µM [inhibitor, full curve].
With `COC(=O)c1ccc(/C=C2/SC(=S)N(CCCC(=O)Nc3ccc(O)cc3)C2=O)cc1` the Potency was inconclusive: 0.126 µM [inhibitor, full curve, poor fit].
In the case of `Cc1cc(=O)[nH]c2nnc(-c3ccc(Br)cc3)n12`, the Potency is reported as inconclusive: 5.62 µM [inhibitor, full curve, poor fit].
`O=S(=O)(c1ccccc1)N1C2CCC1CC(O)(c1cccnc1)C2` (centres undefined) was tested, and the Potency was inconclusive: 17.8 µM [inhibitor, partial curve].
In the case of `Cn1c(N)c(C(=O)CSc2nnnn2-c2ccccc2)c(=O)n(C)c1=O`, the Potency is reported as inconclusive: 39.8 µM [inhibitor, single point].
In the case of `Cc1cc(=O)oc2cc(OCC(=O)N3CCN(C(=O)C4COc5ccccc5O4)CC3)ccc12` (centres undefined), the Potency is reported as inconclusive: 1.12 µM [inhibitor, full curve, poor fit].
In the case of `O=C1C2CC=CCC2C(=O)N1CC1CCCO1` (centres undefined), the Potency is reported as “inactive”.
With `Cc1ccc(COc2ccc(C(=O)NN)cc2)cc1` the Potency was inconclusive: 39.8 µM [inhibitor, single point].
In the case of `Cn1c2c(c(=O)n(C)c1=O)C(C(F)(F)F)(C(F)(F)F)N=C(CCC1CCCCC1)N2`, the Potency is reported as “inactive”.
For `Cc1ccc(S(=O)(=O)N(C(=O)c2ccco2)c2cc3sc(=O)oc3c3ccccc23)cc1`, the Potency was inconclusive: 31.6 µM [inhibitor, single point].
In the case of `COc1cc(OC)cc(-c2n[nH]c(=S)n2-c2ccc3c(c2)OCCO3)c1`, the Potency is reported as “inactive”.
For `COC(=O)C1=CN(Cc2ccc(OC)cc2)C=C(C(=O)OC)C1c1cc(OC)c(OC)c(OC)c1`, the Potency was inconclusive: 3.16 µM [inhibitor, single point].
In the case of `Cc1nc2cnc(N3CCNCC3)nc2n(-c2ccccc2)c1=O`, the Potency is reported as inconclusive: 28.2 µM [inhibitor, partial curve].
`O=c1c2ccccc2c(/C=N/n2cnnc2)c(O)n1-c1ccccc1F` was tested, and the Potency was inconclusive: 28.2 µM [inhibitor, partial curve].
`CCn1c(Sc2ccc(N)cc2Cl)nc2ccccc21` was tested, and the Potency was inconclusive: 3.55 µM [inhibitor, single point].
For `CN(C)c1nc(N(C)C)nc(N(C)C)n1`, the Potency was inconclusive: 39.8 µM [inhibitor, single point].
With `CC(C)[C@H](O)CC[C@@H](C)C1CC[C@H]2C3CC=C4C[C@@H](O)CC[C@]4(C)C3CC[C@]12C` (some centres undefined) the Potency was “inactive”.
In the case of `OCCN1CCN(c2nc(-c3ccccc3)c3cc(Br)ccc3n2)CC1`, the Potency is reported as “inactive”.
`COc1ccccc1/C=C/c1onc(C)c1S(=O)(=O)N1CCC(C(=O)NC(C)C)CC1` was tested, and the Potency was inconclusive: 0.562 µM [inhibitor, partial curve, poor fit].
In the case of `C#CCOCCOCCOCCNc1nc(N2CCN(C(=O)[C@H](CCC(=O)O)n3cc(C(N)CO)nn3)CC2)nc(N2CCN(C(=O)[C@H](CCC(=O)O)n3cc(C(N)CC(C)C)nn3)CC2)n1` (some centres undefined), the Potency is reported as “inactive”.
With `O=C(c1ccccc1)c1nn(-c2ccc(Cl)cc2)c(=O)cc1C(F)(F)F` the Potency was inconclusive: 3.98 µM [inhibitor, single point].
With `CCOC(=O)c1c(NC(=O)CSc2nnnn2C)sc(C)c1C` the Potency was inconclusive: 0.447 µM [inhibitor, full curve, poor fit].
For `O=C(CN1C(=O)C(=O)N(Cc2ccccc2)C1=O)Nc1cc(Cl)cc(Cl)c1`, the Potency was inconclusive: 1 µM [inhibitor, full curve, poor fit].
In the case of `Nc1c(C(=O)NCCN2CCOCC2)c2nc3ccccc3nc2n1-c1ccccc1`, the Potency is reported as inconclusive: 31.6 µM [inhibitor, single point].
In the case of `CSc1nc(SCC(=O)O)c2sc3nc(-c4ccccc4)c4c(c3c2n1)CCC4`, the Potency is reported as inconclusive: 10 µM [inhibitor, partial curve].
In the case of `CCn1c(O)c(C(C#N)=C2N=c3ccccc3=N2)c2ccccc21`, the Potency is reported as “inactive”.
With `Cc1ccc(S(=O)(=O)NC(C)(C)C)cc1C(=O)OCC(=O)N1CCCC1=O` the Potency was inconclusive: 0.794 µM [inhibitor, single point].
In the case of `Cc1ccc(CSCC(=O)N(C)CC(=O)Nc2ccc(Br)cc2C)cc1`, the Potency is reported as inconclusive: 25.1 µM [inhibitor, partial curve].
For `CCCc1c(OCC(O)COc2ccc3c(=O)cc(C(=O)O)oc3c2CCC)ccc(C(C)=O)c1O` (centres undefined), the Potency was inconclusive: 39.8 µM [inhibitor, single point] and inconclusive: 28.2 µM [inhibitor, partial curve, poor fit].
`Cc1ccc(CNS(=O)(=O)c2c(C)[nH]c(C)c2C(=O)N2CCCCC2)o1` was tested, and the Potency was “inactive”.
In the case of `Brc1c(CSc2nncn2-c2ccccc2)nc2sccn12`, the Potency is reported as inconclusive: 8.91 µM [inhibitor, single point].
For `Nc1nnc(SCc2ccccc2F)s1`, the Potency was inconclusive: 7.94 µM [inhibitor, full curve, poor fit].
For `Cn1c(N)c(C(=O)COC(=O)C2CC(O)CN2S(=O)(=O)c2ccc(Cl)cc2)c(=O)n(C)c1=O` (centres undefined), the Potency was “inactive”.
With `CN1C(C(=O)Nc2cccc(O)c2)=CC(c2ccco2)=NS1(=O)=O` the Potency was inconclusive: 8.91 µM [inhibitor, single point].
With `Cc1cc(NCc2ccccn2)n2ncc(-c3ccc(Cl)cc3)c2n1` the Potency was inconclusive: 5.01 µM [inhibitor, full curve, poor fit].
In the case of `CCn1c(SCC(=O)NCc2ccco2)nc2ccccc2c1=O`, the Potency is reported as inconclusive: 25.1 µM [inhibitor, single point].
`CCCCCCCCCCCCCCCCOC[C@H](COP(=O)([O-])OCC[N+](C)(C)C)OC(=O)CCCCCCCC(=O)O` was tested, and the Potency was active: 15.8 µM.
With `COc1cc(C(=S)N2CCOCC2)cc(OC)c1OS(=O)(=O)c1ccc(NC(C)=O)cc1` the Potency was inconclusive: 0.794 µM [inhibitor, single point].
